We go through one sequence from publication PMC6192195, “Hampered motility promotes the evolution of wrinkly phenotype in Bacillus subtilis” (BMC Evolutionary Biology, 2018).

Protein sequences, listed by entry. Tags and fused reporters are not part of them.
UniProt P06533, whole entry L99S: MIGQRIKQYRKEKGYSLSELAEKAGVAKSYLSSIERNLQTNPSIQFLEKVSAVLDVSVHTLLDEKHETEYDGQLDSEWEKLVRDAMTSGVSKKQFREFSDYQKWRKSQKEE

Construct, isoform or probe ends are uncertain for at least one entry.

The data set has as its target SinR-L99S (UniProt P06533). The experiment in a line: ITC. The settings on record: binding site 2 of two-sites model; ITC: buffer C (20 mM HEPES/NaOH, 500 mM NaCl; pH not stated for buffer C, 8.0 for buffers A/B), 25 °C; 30 µM SinR in cell, 150 µM IR-DNA titrated in; recombinant protein; residues 1-111; protein details: C-terminal His6.

For orientation: Kd means the constant that tells how readily two partners part at equilibrium. Regarding “TTTGTTCTCTAAAGAGAACTTA (double strand) [IR-DNA (SinR operator inverted repeat)]”, the Kd came to 288 nM.
